Source: publication PMC4848758
Results are given in words; binding and its absence hold for the method and conditions named. Some results given as binding are weak or reduced against the parent protein; the word gives no strength. One block for each molecule: values may come before it.

Sequences of proteins named here, by UniProt entry; tags and fusion partners are left off.
UniProt Q92609: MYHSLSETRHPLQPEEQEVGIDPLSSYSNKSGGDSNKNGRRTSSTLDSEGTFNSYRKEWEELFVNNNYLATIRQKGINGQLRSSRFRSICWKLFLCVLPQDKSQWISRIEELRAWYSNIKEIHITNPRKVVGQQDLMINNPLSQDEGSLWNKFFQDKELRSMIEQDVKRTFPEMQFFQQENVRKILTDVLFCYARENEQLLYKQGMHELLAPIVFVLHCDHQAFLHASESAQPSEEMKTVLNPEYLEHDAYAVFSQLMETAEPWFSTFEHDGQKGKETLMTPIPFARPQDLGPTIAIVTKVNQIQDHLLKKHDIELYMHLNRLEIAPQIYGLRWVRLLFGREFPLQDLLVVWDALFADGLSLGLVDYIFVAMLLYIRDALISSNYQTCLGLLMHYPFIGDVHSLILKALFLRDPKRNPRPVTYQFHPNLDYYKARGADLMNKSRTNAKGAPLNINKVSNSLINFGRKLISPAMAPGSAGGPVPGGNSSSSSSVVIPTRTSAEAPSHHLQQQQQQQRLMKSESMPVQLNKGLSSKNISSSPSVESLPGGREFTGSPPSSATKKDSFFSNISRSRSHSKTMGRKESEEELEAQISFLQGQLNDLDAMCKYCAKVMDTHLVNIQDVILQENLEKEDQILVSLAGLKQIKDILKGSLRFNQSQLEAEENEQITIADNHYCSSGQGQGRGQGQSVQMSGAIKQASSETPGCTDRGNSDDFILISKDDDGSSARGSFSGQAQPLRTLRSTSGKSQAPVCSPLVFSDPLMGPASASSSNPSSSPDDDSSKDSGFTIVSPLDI

Target: T1, Atg8 (S. cerevisiae) (UniProt P38182)
T1 sequence: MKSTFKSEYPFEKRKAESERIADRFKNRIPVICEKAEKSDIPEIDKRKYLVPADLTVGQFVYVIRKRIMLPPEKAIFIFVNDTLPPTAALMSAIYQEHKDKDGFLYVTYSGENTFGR
Test: two-hybrid; Systematic YHII-1 map: 7,240 human proteins from pDEST-AD against 3,778 yeast proteins from pDEST-DB; single-pass Y2H screen, then pairwise tests four independent times, retained only if positive all four times; confirmed by Sanger end-sequencing

- binding: binds
Molecule: TBC1D5 (from UniProt Q92609 1-795)

- binding: binds
B1: MLX (protein, UniProt Q9UH92 1-298)
chain: MTEPGASPEDPWVKASPVGAHAGEGRAGRARARRGAGRRGASLLSPKSPTLSVPRGCREDSSHPACAKVEYAYSDNSLDPGLFVESTRKGSVVSRANSIGSTSASSVPNTDDEDSDYHQEAYKESYKDRRRRAHTQAEQKRRDAIKRGYDDLQTIVPTCQQQDFSIGSQKLSKAIVLQKTIDYIQFLHKEKKKQEEEVSTLRKDVTALKIMKVNYEQIVKAHQDNPHEGEDQVSDQVKFNVFQGIMDSLFQSFNASISVASFQELSACVFSWIEEHCKPQTLREIVIGVLHQLKNQLY
